Results published in article PMC8464984, “AimR Adopts Preexisting Dimer Conformations for Specific Target Recognition in Lysis-Lysogeny Decisions of Bacillus Phage phi3T” (Biomolecules, 2021).

Columns and labels:
phAimR = assay: Small-angle X-ray scattering, wild-type phAimR; design: species or system Bacillus phage phi3T; conditions: 100 μM phAimR with or without 200 μM SAIRGA; 25 mM Tris-HCl pH 8.0, 300 mM NaCl, room temperature
phAimR^Y341A/E371A = assay: Small-angle X-ray scattering, phAimR^Y341A/E371A; design: species or system Bacillus phage phi3T; conditions: 100 μM phAimR^Y341A/E371A with or without 200 μM SAIRGA; 25 mM Tris-HCl pH 8.0, 300 mM NaCl, room temperature

Row | Molecule | experimental molecular weight (SAXS) (phAimR) | maximum paired distance (Dmax, SAXS) (phAimR) | radius of gyration (Rg, SAXS) (phAimR) | experimental molecular weight (SAXS) (phAimR^Y341A/E371A) | maximum paired distance (Dmax, SAXS) (phAimR^Y341A/E371A) | radius of gyration (Rg, SAXS) (phAimR^Y341A/E371A)
1 | phAimR: AimR from Phi3T phage (GenBank: KY030782.1), transcription factor and arbitrium peptide receptor (protein, left off: His6, N-terminal, cleaved, AimR from Phi3T phage (GenBank: KY030782.1), transcription factor and arbitrium peptide receptor) MIKNECEKDNQLAARLAKLAGYEKVNGFYKFVNTPEKEMENLGGLLKIVKNLFPDSEEQLLSEYFLELDPNKKCARQSVEYSDINQWDTLTDKIIINLCNSKNSTSQEWGKVYSLHRKLNKNEISLNDAIRESGKCKIKSAEMLFFSNAMLMYAYLNIGEFGLMKSTSKLLEFDDLPEGFIKESFKSRVSMLEANISLNENSLLEARQHSNRAIENSNVNRICFFAYLTIGNTLIFEDYDEAKKAYIKGQKYAKNPVHQEMLDGALCFLSNIWKKENQWVNYNSDNIKYLQLRAFYYINQGNIEEATEILDELSSRDQDENELGFYYYYKGLISQDKTDYYKSIRYFKKSDDKYFIQLPLLQLERMGADLELLNLISI | 85.7 kDa | 117 Å | 33.8 Å |  |  | 
2 | phAimR^Y341A/E371A: phAimR carrying two amino acids substitutions (protein, left off: His6, N-terminal, cleaved, phAimR carrying two amino acids substitutions) MIKNECEKDNQLAARLAKLAGYEKVNGFYKFVNTPEKEMENLGGLLKIVKNLFPDSEEQLLSEYFLELDPNKKCARQSVEYSDINQWDTLTDKIIINLCNSKNSTSQEWGKVYSLHRKLNKNEISLNDAIRESGKCKIKSAEMLFFSNAMLMYAYLNIGEFGLMKSTSKLLEFDDLPEGFIKESFKSRVSMLEANISLNENSLLEARQHSNRAIENSNVNRICFFAYLTIGNTLIFEDYDEAKKAYIKGQKYAKNPVHQEMLDGALCFLSNIWKKENQWVNYNSDNIKYLQLRAFYYINQGNIEEATEILDELSSRDQDENELGFYYYYKGLISQDKTDYAKSIRYFKKSDDKYFIQLPLLQLERMGADLALLNLISI |  |  |  | 85.6 kDa | 116 Å | 33.7 Å
